The match of structure and compound is tentative.
Target: GSK-3β (Homo sapiens, UniProt P49841)
Test: Assay for GSK-3β inhibiting activity (32P-ATP, phospho-CREB peptide substrate, filter paper, CPM)
Settings: 100 nM GSK-3β protein, 100 μM phospho-CREB peptide, 100 μM ATP, 30° C. for 1 hour

Chains of the proteins cited; added tags and fusions are not shown.
UniProt P49841, whole entry: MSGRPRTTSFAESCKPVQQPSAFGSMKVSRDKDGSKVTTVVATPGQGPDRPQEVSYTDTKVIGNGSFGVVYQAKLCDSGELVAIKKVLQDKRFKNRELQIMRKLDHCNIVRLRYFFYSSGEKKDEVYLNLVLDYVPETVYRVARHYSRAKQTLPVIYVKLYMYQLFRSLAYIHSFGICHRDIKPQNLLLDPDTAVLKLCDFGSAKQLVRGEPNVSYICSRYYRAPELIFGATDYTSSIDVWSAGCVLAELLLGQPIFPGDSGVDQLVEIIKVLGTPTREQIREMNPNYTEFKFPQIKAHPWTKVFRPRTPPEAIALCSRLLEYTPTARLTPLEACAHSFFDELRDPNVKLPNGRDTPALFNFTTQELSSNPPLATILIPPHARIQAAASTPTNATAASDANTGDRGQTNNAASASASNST

| SMILES | IC50 [µM] |
| --- | --- |
| O=C(NCCNc1ccc([N+](=O)[O-])cn1)c1ccc(O)c2[nH]c(-c3ccc(F)cc3Cl)nc12 | 0.4 |
| CC(=O)Nc1ccc(NCCNC(=O)c2ccc(O)c3[nH]c(-c4ccc(F)cc4Cl)nc23)nc1 | > 1 |
| O=C(NCCNc1ccc([N+](=O)[O-])cn1)c1ccc(O)c2[nH]c(-c3ccc(F)cc3)nc12 | 0.2 |
| Nc1ccc(NCCNC(=O)c2ccc(O)c3[nH]c(-c4ccc(Cl)cc4)nc23)nc1 | > 1 |
| CC(=O)Nc1ccc(NCCNC(=O)c2ccc(O)c3[nH]c(-c4ccc(F)cc4)nc23)nc1 | > 1 |
| CCN(CC)C1CCN(c2ccc(CCNC(=O)c3ccc(O)c4[nH]c(-c5ccc(F)cc5)nc34)cc2)C1 (stereo not shown) | > 1 |
| CC(=O)Nc1ccc(NCCNC(=O)c2ccc(O)c3[nH]c(-c4ccc(Cl)cc4)nc23)nc1 | > 5 |

From patent US7179832B2, “Glycogen synthase kinase 3β inhibitor, composition and process for the preparation thereof” (Crystalgenomics, Inc., priority 2003, dated 2007)
